Patent US10520514B2, “Method for monitoring post-translational modification of protein” (KOREA INSTITUTE OF SCIENCE AND TECHNOLOGY, priority 2017, dated 2019)

Tested on: phosphorylated tau
Test: Nanogap biosensor impedance of microbeads bound to tau protein, reacted with AT8 antibody
Type: biochemical
Settings: 100 uM Thiamet G, tau protein 0.5 pg/ml
Experimental: A tosylate-treated magnetic bead (Thermo Fisher, Dynabead M-280, diameter 2.8 μm, 14203) and a tau protein binding antibody (abcam, Anti-Tau (Phosphor S262) antibody, ab64193, 50 μl/250 μl) are inserted in a 0.1 M PBS buffer and placed in a 37° C. incubator, and incubated on a roll mixer for 24 hours.
Next, the magnetic bead bound to the tau protein binding antibody are washed with 0.4% Block ACE (AbD serotec, USA) and blocked with 0.2 M tris buffer. 30 mg/mL of the microbead solution was stored in PBST (Phosphate Buffered Saline with Tween-20, 0.01% Tween-20) containing 0.4% Block Ace.
The tau protein at a concentration of 5250 ng/mL was diluted 1/10 in various concentrations (0.5 fg/mL to 50 pg/mL) using 0.1% PBST. Tau protein was treated with Thiamet G, an O-glycosylation drug, if necessary.
The microbead bound to the tau protein binding antibody were diluted to 300 μl/ml using 0.1% PBST, and the tau protein (diluent) and the microbead (diluent) were mixed at a concentration of 1:2 and reacted in a refrigerator for 22 hours.
Next, the microbead bound to the tau protein is washed twice with 0.1% PBST and washed twice with PBS (Phosphate Buffered Saline). Thereafter, it is diluted to a bead concentration of 60 μl/ml using PBS. […]
The samples thus obtained were measured for impedance using a biosensor array (10×10 or 20×20) with an electrode interval of 0.7 μm. […]

CCN=C1N[C@@H]2[C@@H](O)[C@H](O)[C@@H](CO)O[C@@H]2S1 [Thiamet G]
BAT2 impedance: 35.54 MΩ | BAT impedance: 36.13 MΩ
